# No constants are given. Whether binding was seen depends on the method and setting. In cells and extracts the contact can be indirect. Some results given as binding are weak or reduced against the parent protein; the word gives no strength. Where a sequence is shown, tags or fusion partners need not be part of it.
# Amino acid sequences for entries named in this document (tags omitted).
# UniProt Q13422: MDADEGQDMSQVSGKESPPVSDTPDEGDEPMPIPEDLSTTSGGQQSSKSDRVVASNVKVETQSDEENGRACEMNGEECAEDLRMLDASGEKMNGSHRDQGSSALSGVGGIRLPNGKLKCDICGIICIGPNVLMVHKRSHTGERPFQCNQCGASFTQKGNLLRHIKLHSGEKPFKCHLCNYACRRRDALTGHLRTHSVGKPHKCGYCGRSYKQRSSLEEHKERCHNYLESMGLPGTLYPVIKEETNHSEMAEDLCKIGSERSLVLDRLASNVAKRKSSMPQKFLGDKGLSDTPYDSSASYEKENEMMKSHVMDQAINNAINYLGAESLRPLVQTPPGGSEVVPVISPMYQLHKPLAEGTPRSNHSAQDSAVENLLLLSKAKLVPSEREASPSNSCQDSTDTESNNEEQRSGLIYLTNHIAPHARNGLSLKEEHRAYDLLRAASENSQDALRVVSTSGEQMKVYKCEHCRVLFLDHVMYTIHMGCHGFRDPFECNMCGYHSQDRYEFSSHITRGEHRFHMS
# UniProt Q02548: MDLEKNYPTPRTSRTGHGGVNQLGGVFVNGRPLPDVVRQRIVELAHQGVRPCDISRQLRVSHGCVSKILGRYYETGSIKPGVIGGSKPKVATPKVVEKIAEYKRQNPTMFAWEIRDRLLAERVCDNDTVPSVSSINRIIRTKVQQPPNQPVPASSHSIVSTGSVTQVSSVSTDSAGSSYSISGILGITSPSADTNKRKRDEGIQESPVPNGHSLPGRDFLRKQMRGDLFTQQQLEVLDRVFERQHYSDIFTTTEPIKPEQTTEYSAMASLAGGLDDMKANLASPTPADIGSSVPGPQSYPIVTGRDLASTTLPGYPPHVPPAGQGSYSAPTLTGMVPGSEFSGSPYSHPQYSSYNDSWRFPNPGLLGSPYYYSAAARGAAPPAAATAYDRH
# UniProt Q06413: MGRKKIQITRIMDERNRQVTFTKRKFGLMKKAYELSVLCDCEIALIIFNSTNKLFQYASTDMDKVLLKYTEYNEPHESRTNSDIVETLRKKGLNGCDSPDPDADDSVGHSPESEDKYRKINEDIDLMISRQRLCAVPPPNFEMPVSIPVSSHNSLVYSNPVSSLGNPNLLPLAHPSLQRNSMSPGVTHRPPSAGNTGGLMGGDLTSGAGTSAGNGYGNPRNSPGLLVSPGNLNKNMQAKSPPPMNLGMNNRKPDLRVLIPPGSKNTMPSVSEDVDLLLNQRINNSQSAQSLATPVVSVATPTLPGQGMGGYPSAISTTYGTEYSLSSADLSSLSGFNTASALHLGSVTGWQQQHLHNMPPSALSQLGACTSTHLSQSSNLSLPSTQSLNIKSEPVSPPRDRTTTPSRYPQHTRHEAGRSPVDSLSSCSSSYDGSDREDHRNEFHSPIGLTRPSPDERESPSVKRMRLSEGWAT
# What was measured:
# [1] = biological target: T1, Histone deacetylase 7 (human (endogenous in BCR-ABL1- pre-B-ALL cells)) (UniProt Q8WUI4); assay: co-IP; supernatants of lysates of BCR-ABL1- pre-B-ALL cells (cell line and primary patient cells) incubated with anti-HDAC7 or anti-MEF2C antibody 1 h at 4 °C, then protein G/A agarose beads overnight at 4 °C; Western blot
# T1 sequence: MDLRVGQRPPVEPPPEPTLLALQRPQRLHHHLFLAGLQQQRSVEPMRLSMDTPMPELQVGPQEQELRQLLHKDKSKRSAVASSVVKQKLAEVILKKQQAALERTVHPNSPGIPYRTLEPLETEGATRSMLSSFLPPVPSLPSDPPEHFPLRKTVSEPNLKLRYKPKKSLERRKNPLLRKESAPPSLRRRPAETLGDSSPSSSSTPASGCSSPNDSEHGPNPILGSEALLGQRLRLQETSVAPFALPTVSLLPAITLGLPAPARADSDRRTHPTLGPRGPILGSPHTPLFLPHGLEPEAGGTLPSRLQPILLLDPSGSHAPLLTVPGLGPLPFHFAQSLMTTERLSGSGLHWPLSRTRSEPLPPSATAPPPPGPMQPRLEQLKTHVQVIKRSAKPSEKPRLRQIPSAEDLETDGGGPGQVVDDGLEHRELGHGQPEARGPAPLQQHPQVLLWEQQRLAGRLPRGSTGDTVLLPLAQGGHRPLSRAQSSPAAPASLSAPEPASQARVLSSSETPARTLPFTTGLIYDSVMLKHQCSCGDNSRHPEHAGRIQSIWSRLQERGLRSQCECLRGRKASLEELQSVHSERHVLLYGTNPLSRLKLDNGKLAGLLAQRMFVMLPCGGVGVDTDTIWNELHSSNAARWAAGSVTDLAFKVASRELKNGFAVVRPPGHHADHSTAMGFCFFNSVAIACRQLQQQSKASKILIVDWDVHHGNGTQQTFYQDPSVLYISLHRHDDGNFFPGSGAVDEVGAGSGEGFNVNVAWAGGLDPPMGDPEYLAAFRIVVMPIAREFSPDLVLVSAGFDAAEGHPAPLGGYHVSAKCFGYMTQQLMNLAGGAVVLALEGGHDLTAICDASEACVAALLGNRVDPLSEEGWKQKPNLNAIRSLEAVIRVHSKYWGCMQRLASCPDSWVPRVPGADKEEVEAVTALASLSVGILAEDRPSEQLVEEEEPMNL
# [2] = biological target: T1, Histone deacetylase 7 (human (endogenous in BCR-ABL1- pre-B-ALL cells)); assay: co-IP; Nalm-6 cells treated with 1.25 μM CC1007 for 7 days; co-immunoprecipitation on the third, fifth and seventh day; Western blot
Substance,binding [1],binding [2]
IKAROS (from UniProt Q13422 1-519),no binding,
Pax5 (from UniProt Q02548 1-391),no binding,
myocyte enhancer factor-2 (MEF2C) (from UniProt Q06413 1-473),binds,binds weakly
